Publication PMC12172489
Results are given in words; binding and its absence hold for the method and conditions named. In cells and extracts the contact can be indirect. Some entries that bind do so weakly or less than the wild type.

Amino acid sequences for entries named in this document (tags omitted).
UniProt P15682: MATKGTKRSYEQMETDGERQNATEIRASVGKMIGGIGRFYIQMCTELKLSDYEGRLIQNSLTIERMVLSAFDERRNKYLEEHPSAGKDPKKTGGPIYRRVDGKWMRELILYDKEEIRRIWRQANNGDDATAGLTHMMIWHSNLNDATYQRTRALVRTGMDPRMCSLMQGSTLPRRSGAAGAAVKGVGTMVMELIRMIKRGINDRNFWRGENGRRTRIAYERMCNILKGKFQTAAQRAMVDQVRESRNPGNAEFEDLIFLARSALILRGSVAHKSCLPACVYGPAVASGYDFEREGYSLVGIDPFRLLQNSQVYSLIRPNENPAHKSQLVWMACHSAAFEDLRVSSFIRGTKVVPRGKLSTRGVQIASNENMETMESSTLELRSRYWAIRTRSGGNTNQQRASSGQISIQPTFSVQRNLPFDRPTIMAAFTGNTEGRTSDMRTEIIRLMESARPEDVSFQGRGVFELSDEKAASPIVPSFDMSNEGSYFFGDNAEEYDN
UniProt P03427: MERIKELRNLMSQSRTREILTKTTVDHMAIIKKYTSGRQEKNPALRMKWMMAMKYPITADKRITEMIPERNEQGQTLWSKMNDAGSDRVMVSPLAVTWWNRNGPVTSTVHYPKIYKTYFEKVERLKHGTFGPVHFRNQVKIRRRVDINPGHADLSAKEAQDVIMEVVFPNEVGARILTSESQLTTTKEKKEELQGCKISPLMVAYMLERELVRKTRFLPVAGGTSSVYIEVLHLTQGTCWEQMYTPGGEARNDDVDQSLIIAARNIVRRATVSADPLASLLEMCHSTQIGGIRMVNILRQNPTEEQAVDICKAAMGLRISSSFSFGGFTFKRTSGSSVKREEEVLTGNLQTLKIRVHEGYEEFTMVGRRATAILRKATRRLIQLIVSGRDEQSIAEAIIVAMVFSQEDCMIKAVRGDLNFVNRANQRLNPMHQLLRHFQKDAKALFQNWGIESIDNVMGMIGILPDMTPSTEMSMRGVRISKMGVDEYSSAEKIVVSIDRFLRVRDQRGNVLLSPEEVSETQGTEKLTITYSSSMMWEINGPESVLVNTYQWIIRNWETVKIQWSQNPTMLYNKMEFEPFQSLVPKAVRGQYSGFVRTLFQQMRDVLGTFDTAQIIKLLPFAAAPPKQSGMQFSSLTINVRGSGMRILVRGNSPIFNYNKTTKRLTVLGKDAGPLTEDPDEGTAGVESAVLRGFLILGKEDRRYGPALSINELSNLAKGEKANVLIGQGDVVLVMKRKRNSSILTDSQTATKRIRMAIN

Key:
[1] = molecular target: T1, Heterogeneous nuclear ribonucleoprotein M (hnRNPM) (human (endogenous in A549)) (UniProt P52272); test: co-IP
T1 sequence: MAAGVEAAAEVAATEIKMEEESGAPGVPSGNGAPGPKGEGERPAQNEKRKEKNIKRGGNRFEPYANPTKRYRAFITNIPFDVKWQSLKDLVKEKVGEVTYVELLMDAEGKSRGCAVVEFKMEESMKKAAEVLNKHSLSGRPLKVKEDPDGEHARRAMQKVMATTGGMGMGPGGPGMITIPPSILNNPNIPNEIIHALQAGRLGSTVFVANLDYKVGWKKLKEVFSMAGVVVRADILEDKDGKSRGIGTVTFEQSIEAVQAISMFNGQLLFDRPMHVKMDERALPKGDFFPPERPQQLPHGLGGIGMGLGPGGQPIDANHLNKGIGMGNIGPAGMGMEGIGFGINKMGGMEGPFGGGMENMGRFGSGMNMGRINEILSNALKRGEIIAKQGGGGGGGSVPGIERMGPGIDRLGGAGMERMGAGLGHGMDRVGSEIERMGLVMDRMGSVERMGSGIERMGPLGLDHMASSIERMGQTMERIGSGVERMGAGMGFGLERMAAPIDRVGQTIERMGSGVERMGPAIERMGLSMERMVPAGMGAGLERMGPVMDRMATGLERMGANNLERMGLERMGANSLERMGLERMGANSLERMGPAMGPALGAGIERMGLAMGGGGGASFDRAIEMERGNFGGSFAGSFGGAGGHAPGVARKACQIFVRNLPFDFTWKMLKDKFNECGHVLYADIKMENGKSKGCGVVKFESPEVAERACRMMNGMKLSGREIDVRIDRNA

co-IP = substrate: NP of influenza A/WSN/33 (WSN, H1N1) virus (influenza A/WSN/33 (WSN, H1N1) virus) (UniProt P15682); test: co-IP

NP of influenza A/WSN/33 (WSN, H1N1) virus (from UniProt P15682 1-498)
binding [1]: binds

PB2 of influenza A/WSN/33 (WSN, H1N1) virus (from UniProt P03427 1-759)
binding [1]: binds

B1: Heterogeneous nuclear ribonucleoprotein M (hnRNPM) (protein, UniProt P52272 1-730)
chain: MAAGVEAAAEVAATEIKMEEESGAPGVPSGNGAPGPKGEGERPAQNEKRKEKNIKRGGNRFEPYANPTKRYRAFITNIPFDVKWQSLKDLVKEKVGEVTYVELLMDAEGKSRGCAVVEFKMEESMKKAAEVLNKHSLSGRPLKVKEDPDGEHARRAMQKVMATTGGMGMGPGGPGMITIPPSILNNPNIPNEIIHALQAGRLGSTVFVANLDYKVGWKKLKEVFSMAGVVVRADILEDKDGKSRGIGTVTFEQSIEAVQAISMFNGQLLFDRPMHVKMDERALPKGDFFPPERPQQLPHGLGGIGMGLGPGGQPIDANHLNKGIGMGNIGPAGMGMEGIGFGINKMGGMEGPFGGGMENMGRFGSGMNMGRINEILSNALKRGEIIAKQGGGGGGGSVPGIERMGPGIDRLGGAGMERMGAGLGHGMDRVGSEIERMGLVMDRMGSVERMGSGIERMGPLGLDHMASSIERMGQTMERIGSGVERMGAGMGFGLERMAAPIDRVGQTIERMGSGVERMGPAIERMGLSMERMVPAGMGAGLERMGPVMDRMATGLERMGANNLERMGLERMGANSLERMGLERMGANSLERMGPAMGPALGAGIERMGLAMGGGGGASFDRAIEMERGNFGGSFAGSFGGAGGHAPGVARKACQIFVRNLPFDFTWKMLKDKFNECGHVLYADIKMENGKSKGCGVVKFESPEVAERACRMMNGMKLSGREIDVRIDRNA
binding (co-IP): binds
